Several values for one entry are separate records, joined by “and”; a condition that tells them apart may be missing. Identical values can stand only once. In all, about 78,000 compounds went through this assay and about 1,800 (2.3%) were called active. The shares of active, inactive and inconclusive entries below differ from those in the screen. Cut-off read from the data, not from the text of the source: active = inhibition above about 30%; inconclusive = mostly about 10% to 28%; inactive = weaker than that.
Molecular target: Interleukin-1 receptor-like 1 (Homo sapiens) (UniProt Q01638)
Experiment: blocks human ST2 binding to IL-33, primary screen, biochemical, AlphaLISA (AID 1259354)
Conditions: AlphaLISA ST2-Fc/biotin-IL-33 interaction, 1 h; at 17 µM, stronger effect = higher value

By UniProt entry, the sequences of proteins in these tests, tags left out. Where a name states a change or a piece, a line headed by the entry shows the natural chain unless it says otherwise.
UniProt Q01638: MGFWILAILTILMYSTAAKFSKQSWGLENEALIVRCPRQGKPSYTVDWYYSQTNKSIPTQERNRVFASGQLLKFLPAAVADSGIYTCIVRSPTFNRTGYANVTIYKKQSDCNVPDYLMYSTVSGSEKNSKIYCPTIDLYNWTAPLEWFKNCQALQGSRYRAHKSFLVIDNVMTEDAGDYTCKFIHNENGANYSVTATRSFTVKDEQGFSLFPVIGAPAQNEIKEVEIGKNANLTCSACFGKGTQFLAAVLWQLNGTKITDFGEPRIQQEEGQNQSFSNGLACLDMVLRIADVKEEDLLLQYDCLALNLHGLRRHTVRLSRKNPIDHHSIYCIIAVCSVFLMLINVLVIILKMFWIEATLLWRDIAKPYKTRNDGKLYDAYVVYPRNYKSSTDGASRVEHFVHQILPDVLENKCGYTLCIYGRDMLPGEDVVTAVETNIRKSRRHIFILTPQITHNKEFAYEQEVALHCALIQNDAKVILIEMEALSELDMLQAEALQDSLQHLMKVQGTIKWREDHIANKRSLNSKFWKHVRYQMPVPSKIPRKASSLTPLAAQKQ

Compound | inhibition
O=[N+]([O-])c1ccc(Cl)c(-c2ncnn2-c2ccc(Br)cc2)c1 | inactive
COc1ccc(N2CSC3=C(C#N)C(c4ccccc4OC)CC(=O)N3C2)c(OC)c1 (stereo unspecified) | inconclusive: 20%
CC1=C[C@@H](CO)[C@H](C(C)C)C[C@H]1CC(=O)N1CCN(c2ccccn2)CC1 | inactive
Cc1ccc(S(=O)(=O)N(C)CC(=O)N2CCN(c3ccccc3F)CC2)cc1 | inactive
COc1ccccc1N1CCN(C2CCN(Cc3cccc(C)c3)CC2)CC1 | inconclusive: 21%
CCOc1ccc(-c2nc(SCC(=O)Nc3cc(C)ccc3OC)n3[nH]c(=O)cc3n2)cc1 | inconclusive: 12%
Cc1cc(=O)c2c([nH]1)C(O)=C(CN(C)C)C(=O)C2=O | active: 43%
CC(=O)Nc1ccc(N=Cc2cccc([N+](=O)[O-])c2O)cc1 | inactive
O=C(Oc1ccccc1)c1cc2c3c(c1O)C1C=CCC1CN3CC1CC=CC21 (stereo unspecified) | inactive
CN[C@@H]1[C@H](O)[C@H](CO)O[C@@H]1CNC1CCCCC1 | inconclusive: 11%
O=C(N1CCOCC1)n1cnc2ccccc21 | inconclusive: 17%
Cc1ccc(NC(=O)C2CC(=O)OC23CCCCC3)c([N+](=O)[O-])c1 (stereo unspecified) | inactive
CCC(CC)C(=O)Nc1ccc(C)c(OCc2cc(=O)n3cccc(C)c3n2)c1 | inconclusive: 23%
COc1ccccc1C1Nc2ccc3ncccc3c2C2=C1C(=O)CC(C)(C)C2 (stereo unspecified) | inconclusive: 17%
OCCCn1ccnc1-c1ccccc1OCc1ccccc1 | inconclusive: 13%
CCOC(=O)c1ccc(-c2sc3nc(N4CCOCC4)c4c(c3c2N)CC(C)(C)OC4)o1 | inconclusive: 16%
CCSc1nc(CC(=O)NCc2n[nH]c3c2CCCCC3)cs1 | inconclusive: 11%
N#CC1=C(N)N(c2ccc(Br)cc2F)C2=C(C(=O)CCC2)C1c1cccs1 (stereo unspecified) | inactive
Cc1cc(-n2ccnc2)n2c(nc3ccccc32)c1C#N | inconclusive: 10%
COc1ccc2nc3oc(C(=O)Nc4ccc5c(c4)OCCO5)cc3cc2c1 | active: 36%
CCOc1ccc(Cc2cnc(N)nc2N)cc1 | inactive
O=C(NCCCn1ccnc1)c1ccccc1C(=O)c1ccccc1 | inactive
O=C(Nc1ccccc1)c1cc([N+](=O)[O-])ccc1Cl | inactive
Cc1cccn2cc(C(=O)N3CCCC4(CN(C)C(=O)O4)C3)nc12 (stereo unspecified) | inconclusive: 10%

Compound | inhibition
O=C(c1cccc([N+](=O)[O-])c1)n1cccn1 | inactive
COc1cc2c(cc1OC)C(C(=O)NC(C)C)C1c3ccccc3CCN1C2=O (stereo unspecified) | inactive
CN(C)S(=O)(=O)c1ccc(-c2nccc(CCC(F)(F)F)n2)cc1 | inconclusive: 16%
CC(C)Cc1cc(C(=O)NCC(c2cccnc2)N2CCCC2)n(C)n1 (stereo unspecified) | inconclusive: 11%
O=C(O)COc1ccc(N2C(=O)c3cccc4cccc(c34)C2=O)cc1 | inactive
O=C(NCCc1ccc(Cl)cc1)c1ccc(Cn2c(=O)[nH]c3ccsc3c2=O)cc1 | active: 37% and inconclusive: 23%
COc1ccc(NC(=O)[C@H](CCS(C)(=O)=O)N2Cc3ccccc3C2=O)c(OC)c1 | inconclusive: 22%
COC(=O)C1C(c2ccc(O)cc2)C(C(=O)OC)C1c1ccc(O)cc1 (stereo unspecified) | inactive
CC(C)c1cc(C(=O)N2CCn3c(C(N)=O)cnc3C2)cs1 | inconclusive: 11%
COc1cc(OC)cc(C(=O)Nc2nc3c(ccc4ccccc43)s2)c1 | inactive
COc1ccc(C(=O)c2nc3ccccc3n2C)cc1OC | inactive
C[N+]1(CCCCC[N+]2(C)CCCC2)CCCC1 | inconclusive: 12%
Cc1cccc(Cl)c1OCCNC(=O)CSc1nnc(N)s1 | inconclusive: 15%
Cc1cc(C)c2[nH]c(C)c(CC(=O)N3CCOC(C(F)(F)F)C3)c2c1 (stereo unspecified) | inactive
CN1CCC(N2C[C@@H]3OCC(=O)N(CC(N)=O)[C@@H]3C2)CC1 | inactive
CCC(c1ccnn1C)N1Cc2ncccc2C1=O (stereo unspecified) | inconclusive: 12%
Cn1nc(-c2cccs2)cc1C(=O)N1C[C@H]2CC=CC[C@H]2C1 | inactive
c1cncc(COC2CCN(Cc3cnc(CC4CCCC4)[nH]3)CC2)c1 | inconclusive: 14%
O=C(NCc1ccco1)c1ccc2nc3ccsc3c(=O)n2c1 | inactive
O=C(CCCn1c(=O)[nH]c2ccsc2c1=O)N1CCN(c2ccccc2)CC1 | inactive
Cc1ccc(N2CC(NC(=O)c3ccc(S(=O)(=O)N4CCOCC4)cc3)CC2=O)cc1C (stereo unspecified) | inconclusive: 10%
O=C(c1n[nH]c2c1CCCC2)N(CC1CCN(C2CCCC2)CC1)CC1CCCO1 (stereo unspecified) | inactive
CCc1nc(C)ccc1OCC(=O)N1CCC2(CN(C)C(=O)O2)C1 (stereo unspecified) | active: 30%
Cc1nn(C)cc1-c1ccnc(NCCCn2ccnc2C(C)C)n1 | inactive

Compound | inhibition
Cn1c(C(=O)NCCc2ccccc2)cc2c(=O)n3ccccc3nc21 | inconclusive: 10%
CC1(C)CC(=O)C=C(Nc2ccc3c(c2)Cc2ccccc2-3)C1 | inconclusive: 19%
COc1cc(-c2cccc3cccnc23)cc(OC)c1OC | inconclusive: 10%
Cn1ccn2ncc(C(=O)NCCc3ccccn3)c12 | inconclusive: 11%
CN(C)c1ccc(C2CC(c3ccc(Br)cc3)=NN2C(=O)CCC(=O)O)cc1 (stereo unspecified) | inconclusive: 15%
NS(=O)(=O)c1cccc(NC(=O)c2cc(I)ccc2Cl)c1 | inactive
Cc1nnc([C@H]2CCN(Cc3ccc4c(c3)OCO4)C2)o1 | inactive
N#Cc1ccccc1-c1nc2c3c(c(N)ccc3n1)C(=O)c1ccccc1-2 | active: 42%
O=C(CSC1CC(=O)N(c2cccc(Cl)c2)C1=O)Nc1ccc(Br)cc1 (stereo unspecified) | inconclusive: 14%
CCC(=O)N1CCc2cc(Br)cc(S(=O)(=O)CCC(=O)Nc3ccccn3)c21 | inconclusive: 20%
COc1ccc(C2CC(=O)C3=C(C2)Nc2ccccc2NC3c2ccc(SC)cc2)cc1 (stereo unspecified) | inconclusive: 14%
COc1ccc(C2(C(=O)N3CC(c4ccncc4)C3)CC2)cc1 | inconclusive: 10%
COc1ccc(CCN(C)CCCC(C#N)(c2ccc(OC)c(OC)c2)C(C)C)cc1OC (stereo unspecified) | inconclusive: 12%
CC(=O)NCc1cccnc1N(C)Cc1ccccc1 | inconclusive: 12%
COc1ccc2cc3cc(C(=O)Nc4ccc(OC)c(Cl)c4)sc3nc2c1 | active: 38%
N#Cc1ccc(CN2CC[C@H](c3nnc(-c4ccccc4F)o3)C2)cc1 | inconclusive: 15%
O=C(NC[C@H]1O[C@@H](CO)[C@@H](O)[C@H]1N1CCN(c2cccc(C(F)(F)F)c2)CC1)Nc1ccc(OC(F)(F)F)cc1 | inconclusive: 13%
CS(=O)(=O)c1ccc(CN2CC[C@H](c3nnc(Cc4c[nH]c5ccccc45)o3)C2)cc1 | inactive
CN1C=C2C(C#N)=C(N)C(C#N)(C#N)C(c3cccc(Cl)c3Cl)C2CC1 (stereo unspecified) | inconclusive: 12%
CC1=C(C(=O)N2CCCCC2)C(c2ccc(C)cc2)n2c(nc3ccccc32)N1 (stereo unspecified) | inactive
CC(C)c1cc(C(=O)N2CCCC(C(=O)Nc3cccc(-c4ccc(F)cc4)c3)C2)on1 (stereo unspecified) | inconclusive: 23%
O=C(NCCN1CCOCC1)c1cc(-c2ccc(Br)s2)nc2ccccc12 | inconclusive: 14%
CCNc1ncc(C(=O)NC2CCC(n3cnnc3)CC2)cn1 (stereo unspecified) | inconclusive: 16%
O=C1C2CCCCC2C(=O)N1c1ccc(Cl)cc1F (stereo unspecified) | inconclusive: 10%

Compound | inhibition
Cc1ccc2occ(C3Nc4ccccc4NC4=C3C(=O)CC(c3cccs3)C4)c(=O)c2c1 (stereo unspecified) | inconclusive: 25%
C=CCN(Cc1ccco1)Cc1cc2ccccc2n(C)c1=O | inconclusive: 19%
CCCN(Cc1nccn1C)C(=O)c1cnn2c1CCCC2 | inconclusive: 11%
COc1ccc(CC(=O)N2CCN=C2SCc2ccccc2F)cc1OC | inconclusive: 13%
COc1ccccc1/C=C1\C=C(c2ccc(Cl)cc2)OC1=O | inconclusive: 29%
COc1ccc(Nc2nc3nonc3nc2Nc2ccc(OC)cc2OC)c(OC)c1 | inconclusive: 11%
COc1cc(NC(=O)Cn2c(=O)sc3ccccc32)cc(OC)c1OC | inactive
CC(NC(=O)CSc1ccccc1)c1ccccc1 (stereo unspecified) | inconclusive: 12%
CN(C)c1ccc(/C=c2\sc3nncn3c2=O)cc1 | inactive
CN1CCN(c2nc3c(c(=O)n(C)c(=O)n3C)n2Cc2ccc(Br)cc2)CC1 | inactive
Cc1ccccc1CN1CCC(CN(Cc2cccnc2)C(=O)C2=CCCC2)CC1 | inactive
O=C(Nc1nc(-c2cccc3ccccc23)cs1)c1ccc(F)cc1 | inconclusive: 13%
CCOC(=O)c1c(C)n(-c2ccccc2)c2ccc(OC(=O)C3CC3)cc12 | inconclusive: 14%
COc1ccc(F)cc1CN1CCC(CNS(C)(=O)=O)C1 (stereo unspecified) | inconclusive: 13%
Cc1ccc(-c2nnc3s/c(=C\c4ccc([N+](=O)[O-])cc4)c(=O)n23)cc1 | inactive
Cc1c(Br)c([N+](=O)[O-])nn1CCCC(=O)NC(C)c1ccccc1 (stereo unspecified) | inconclusive: 11%
CCCCOCC(O)Cn1c(CO)nc2ccccc21 (stereo unspecified) | inconclusive: 13%
CC1(C)C(C=C(Cl)Cl)C1C(=O)Nc1sc2c(c1C#N)CCC2 (stereo unspecified) | inactive
O=C(c1cc(Nc2ccccc2)nc2ccccc12)N1CCCC1 | inconclusive: 18%
CSc1nc2c(sc3ccccc32)c(=O)n1Cc1cccnc1 | inactive
COc1cc(F)c(-c2nccn2CCCc2cccnc2)cc1OC | inconclusive: 16%
Oc1c(C=Nc2cccc(F)c2)[nH]c2ccc(Br)c(Cl)c12 | active: 32%
OCC1CCCN1Cc1ccccc1F (stereo unspecified) | inconclusive: 18%
COc1ccc2cc3cc(C(=O)Nc4cc(Cl)ccc4OC)sc3nc2c1 | inconclusive: 15%
